Source: PubChem BioAssay AID504327 (National Center for Advancing Translational Sciences (NCATS), 2011)
The campaign covered roughly 390,000 compounds. About 820 (0.21%) were called active. The inconclusive results got no clear call from the source; some entries with a clear call stand among them for comparison. Calls come from the whole dose curve; as a rule, active = well fitted inhibition curve with a large enough effect; inconclusive = small, poorly fitted or top-dose-only effect, or another doubt; inactive = no such curve, though single readings can be large or run the other way. Potencies beside an inconclusive call are fits to weak or partial responses and may not hold up.

Amino acid sequences for entries named in this document (tags omitted).
UniProt Q92830, whole entry, looked up: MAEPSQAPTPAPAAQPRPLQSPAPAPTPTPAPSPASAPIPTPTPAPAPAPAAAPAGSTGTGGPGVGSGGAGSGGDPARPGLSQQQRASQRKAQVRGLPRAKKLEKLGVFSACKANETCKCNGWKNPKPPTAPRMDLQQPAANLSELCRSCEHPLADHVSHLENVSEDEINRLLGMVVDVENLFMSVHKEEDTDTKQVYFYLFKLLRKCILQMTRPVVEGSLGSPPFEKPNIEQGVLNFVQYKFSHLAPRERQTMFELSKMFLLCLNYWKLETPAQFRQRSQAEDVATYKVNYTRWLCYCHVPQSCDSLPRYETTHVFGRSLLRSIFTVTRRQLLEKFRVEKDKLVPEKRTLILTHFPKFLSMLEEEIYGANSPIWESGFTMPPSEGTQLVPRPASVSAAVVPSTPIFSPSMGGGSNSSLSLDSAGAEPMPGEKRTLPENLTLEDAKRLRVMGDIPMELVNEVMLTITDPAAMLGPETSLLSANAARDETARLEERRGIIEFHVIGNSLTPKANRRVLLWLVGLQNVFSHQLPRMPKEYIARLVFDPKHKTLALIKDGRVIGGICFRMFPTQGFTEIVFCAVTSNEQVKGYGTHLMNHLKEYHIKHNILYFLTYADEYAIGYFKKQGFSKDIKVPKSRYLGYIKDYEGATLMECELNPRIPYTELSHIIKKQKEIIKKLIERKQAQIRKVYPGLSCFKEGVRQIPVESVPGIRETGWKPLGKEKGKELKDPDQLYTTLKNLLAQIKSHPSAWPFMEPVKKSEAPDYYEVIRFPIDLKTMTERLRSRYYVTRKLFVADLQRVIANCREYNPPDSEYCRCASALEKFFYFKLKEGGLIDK

What follows are compounds tested against Histone acetyltransferase KAT2A (Homo sapiens) (UniProt Q92830) (assay: qHTS Assay for Inhibitors of GCN5L2). Details: GCN5L2 HAT assay, ThioGlo1 CoA-SH fluorescence; activity change, negative = inhibition: at 58.9 µM (top of the series) unless noted.
Method in brief: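 Fluorescence readout, Ex340nm/Em540nm: ThioGlo1 (50uM final) reacts with free CoA thiol released as 20nM GCN5L2 acetylates H3(1-25) peptide (75uM) using acetyl-CoA (70uM). Compound and enzyme sat 15 min beforehand; 20 min room-temperature reaction.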
% is set by controls: 0 for no effect and ±100 for the full control effect; potency is the fitted concentration of half-maximal effect.

Row | SMILES | Potency | activity change, negative = inhibition
1 | CCCCN(C(=O)C(C)Oc1ccc(Br)cc1)c1c(N)n(Cc2ccccc2)c(=O)[nH]c1=O (configuration not stated) | inactive | 
2 | COc1cc(C)c(NC(=S)Nc2ccc(Cl)c(Cl)c2)cc1OC | inconclusive: 0.891 µM [inhibitor, single point] | 
3 | O=C1CCC(C(=O)Nc2cccc(S(=O)(=O)Nc3ccccc3F)c2)=NN1 | inconclusive: 28.2 µM [inhibitor, partial curve] | 
4 | Cc1cc(C)cc(-n2nnc(-c3nc(-c4ccccc4F)no3)c2C)c1 | inconclusive: 8.91 µM [inhibitor, single point] | 
5 | COc1ccc(C(C)=NNc2ccc([N+](=O)[O-])cc2S(=O)(=O)Nc2ccccc2C(=O)O)c(OC)c1 | inconclusive: 35.5 µM [inhibitor, single point] | 
6 | O=[N+]([O-])c1cc(/C=N\Nc2nccs2)ccc1O | inconclusive: 17.8 µM [inhibitor, partial curve] | 
7 | COc1ccc(NC(=O)c2sc3nc(C)c(C(=O)Nc4ccc(Cl)cc4)c(-c4ccc(Br)cc4)c3c2N)cc1 | inconclusive: 39.8 µM [inhibitor, single point] | 
8 | Cc1cccc(C)c1-n1cccc1/C=C1\SC(=S)N(c2cccc(C(=O)O)c2)C1=O | active: 31.6 µM | 
9 | Cn1cccc1/C=N\NC(=O)C1COc2ccccc2O1 (configuration not stated) | inconclusive: 8.91 µM [inhibitor, single point] | 
10 | O=c1[nH]c2ccccc2[n+]([O-])c1-c1ccccc1 | inactive | 
11 | CCCSC1=C(C#N)C(c2ccccc2OCC)CC(=O)N1 (configuration not stated) | inconclusive: 3.16 µM [inhibitor, single point] | 
12 | COCCn1c(=O)c(-c2ccc(Cl)cc2)nc2cnc(N3CCNCC3)nc21 | inconclusive: 28.2 µM [inhibitor, partial curve] | 
13 | COC(=O)N/N=C/c1cn(CCOc2ccc(OC)cc2)c2ccccc12 | inactive | 
14 | COc1ccc(C(=O)NCCN2C(=O)S/C(=C\c3cccnc3)C2=O)cc1[N+](=O)[O-] | inconclusive: 0.708 µM [inhibitor, single point] | 
15 | COC(=O)c1ccccc1NC(=O)Cn1c(=O)n(-c2ccc(Cl)cc2)c(=O)c2c(C)c(C)sc21 | inactive | 
16 | COc1cccc(CNC(=O)COC(=O)c2ccc(C(=O)c3ccccc3)cc2)c1 | inconclusive: 39.8 µM [inhibitor, single point] | 
17 | COc1cc(CN2CCNC(=O)C2CC(=O)NCCCN2CCOCC2)cc(OC)c1 (configuration not stated) | inconclusive: 20 µM [inhibitor, partial curve, poor fit] | 
18 | CN1C(=O)Cc2cc(S(=O)(=O)CCC(=O)N3CCN(c4ccccc4F)CC3)ccc21 | inactive | 
19 | COc1ccc(-c2ccc3nnc(SCC(=O)NCC4CCCO4)n3n2)cc1 (configuration not stated) | inconclusive: 20 µM [inhibitor, partial curve, poor fit] | 
20 | CCOC(=O)c1ccc(NC(=O)Cn2cnc(S(=O)(=O)N3CCCC3)c2)cc1 | inconclusive: 4.47 µM [inhibitor, full curve, poor fit] | 
21 | CC(Nc1nc(-c2cccc(Br)c2)cs1)c1nc2cc(Cl)c(N3CCCCC3)cc2n1CCOCCO (configuration not stated) | inconclusive: 8.91 µM [inhibitor, single point] | 
22 | O=C(Oc1cccc(NC(=O)c2ccco2)c1)c1ccc(Br)c(S(=O)(=O)N2CCCCC2)c1 | inconclusive: 12.6 µM [inhibitor, partial curve] | 
23 | O=S(=O)(NC1CCCC1)c1cccc(-c2nnc(-c3ccccc3)o2)c1 |  | inconclusive: -88.5% [inhibitor] [at 0.501 µM]

Reformatted: results already given.

| Row | SMILES | Potency | activity change, negative = inhibition |
| --- | --- | --- | --- |
| 10 | O=c1[nH]c2ccccc2[n+]([O-])c1-c1ccccc1 | inactive |  |
| 11 | CCCSC1=C(C#N)C(c2ccccc2OCC)CC(=O)N1 (configuration not stated) | inconclusive: 3.16 µM [inhibitor, single point] |  |
| 14 | COc1ccc(C(=O)NCCN2C(=O)S/C(=C\c3cccnc3)C2=O)cc1[N+](=O)[O-] | inconclusive: 0.708 µM [inhibitor, single point] |  |
| 15 | COC(=O)c1ccccc1NC(=O)Cn1c(=O)n(-c2ccc(Cl)cc2)c(=O)c2c(C)c(C)sc21 | inactive |  |
| 21 | CC(Nc1nc(-c2cccc(Br)c2)cs1)c1nc2cc(Cl)c(N3CCCCC3)cc2n1CCOCCO (configuration not stated) | inconclusive: 8.91 µM [inhibitor, single point] |  |
| 23 | O=S(=O)(NC1CCCC1)c1cccc(-c2nnc(-c3ccccc3)o2)c1 |  | inconclusive: -88.5% [inhibitor] [at 0.501 µM] |

More entries follow.

Row | SMILES | Potency | activity change, negative = inhibition
24 | CCOC(=O)c1cnc2ccc(C(=O)OC)cc2c1Nc1ccc(C(=O)O)cc1 | inactive | 
25 | CCn1c(CC(=O)Nc2ccccc2F)nnc1SCC(=O)N1CCOCC1 | inconclusive: 8.91 µM [inhibitor, single point] | 
26 | O=C(c1ccc(-n2c(SCc3cccc(F)c3)nc3ccccc3c2=O)cc1)N1CCOCC1 | inactive | 
27 | O=C(Nc1cccc(F)c1)N1CCCC(CNS(=O)(=O)Cc2ccccc2)C1 (configuration not stated) | inactive | 
28 | Cc1cc(C)nc(NS(=O)(=O)c2ccc(-n3cccc3)cc2)n1 | inconclusive: 10 µM [inhibitor, partial curve, poor fit] | 
29 | O=C(Nc1nc2ccc(F)cc2s1)c1nc(S(=O)(=O)Cc2ccccc2)ncc1Cl | inactive | 
30 | CC1CCC(NC(=O)CCN2C(=O)C3C4C=CC(C4)C3C2=O)CC1 (configuration not stated) | inactive | 
31 | COc1ccc(NC(=O)CSc2nc3c(oc4ccccc43)c(=O)n2-c2ccc(C)c(C)c2)cc1 | inactive | 
32 | Cc1ccc2[nH]c(CCN(C)C)c(CN3CCOCC3)c2c1 | inactive | 
33 | Cc1c(Cl)cccc1NC(=O)C(C)n1nnc2sc3c(c2c1=O)CCCC3 (configuration not stated) | inactive | 
34 | C(=C\c1nc(N2CCCCCC2)c2ccccc2n1)/c1ccccc1 | inactive | 
35 | COc1ccccc1-c1cncnc1Nc1ccccc1 | inconclusive: 25.1 µM [inhibitor, partial curve] | 
36 | O=C(Cc1ccc(S(=O)(=O)N2CCOCC2)s1)NCC(=O)Nc1ccccc1Br | inconclusive: 28.2 µM [inhibitor, partial curve] | 
37 | COc1ccc(C2=NS(=O)(=O)N(C)C(C(=O)NCc3ccc4c(c3)OCO4)=C2)cc1 | inconclusive: 31.6 µM [inhibitor, partial curve, poor fit] | 
38 | O=C(CCNS(=O)(=O)c1ccccc1)OCC(=O)c1ccc(F)cc1 | inconclusive: 3.98 µM [inhibitor, single point] | 
39 | COc1ccc(C(=O)NNC(=O)Cc2ccc(Cl)cc2)cc1 | inconclusive: 39.8 µM [inhibitor, single point] | 
40 | Cc1onc(-c2ccccc2Cl)c1C(=O)Nc1ccc(-c2cn3cccnc3n2)cc1 | inconclusive: 39.8 µM [inhibitor, single point] | 
41 | CCCn1c(=O)c2sccc2n2c(CCCC(=O)NCc3ccco3)nnc12 | inconclusive: 25.1 µM [inhibitor, partial curve, poor fit] | 
42 | C1CCN2C[C@@H]3C[C@@H](CN4CCCC[C@H]34)[C@H]2C1 | inconclusive: 11.2 µM [inhibitor, single point] | 
43 | CC(C)c1cccc(-c2ccc3c(c2)S(=O)(=O)c2cccc(C(=O)NCc4ccco4)c2C3=O)c1 | inconclusive: 39.8 µM [inhibitor, single point] | 
44 | CCc1nc(Nc2ccccc2)c2oc3ccccc3c2n1 | inconclusive: 0.794 µM [inhibitor, single point] | 
45 | CC(=O)NNc1nc2ccccc2s1 | inconclusive: 39.8 µM [inhibitor, single point] | 
46 | CCOc1ccc(/C=C\C(C)=N\O)cc1 | inconclusive: 0.708 µM [inhibitor, single point] | 

Row | SMILES | Potency | activity change, negative = inhibition
47 | Cc1ccc2[nH]c(=O)c(CNC(C)(C)C)cc2c1 | inactive | 
48 | COCCN1CCN(c2c3c(nc4cc(-c5cccc(F)c5)nn24)CCC3)CC1 | inactive | 
49 | COc1ccc(CNC(=O)c2cccc(-n3cnc4cccnc43)c2C)cc1 | inactive | 
50 | COc1cccc(NC(=O)CN(C)C(=O)CCC(=O)c2cc(C)sc2C)c1 | inconclusive: 3.98 µM [inhibitor, full curve, poor fit] | 
51 | COc1cccc(C(=O)Nc2ccc3c(cc2=O)[C@@H](NC(C)=O)CCc2cc(OC)c(OC)c(OC)c2-3)c1 | inconclusive: 44.7 µM [inhibitor, single point] | 
52 | Cc1cccc(OCC(=O)Nc2ccc(C(=O)Nc3ccccc3C(=O)O)cc2)c1C | inconclusive: 3.98 µM [inhibitor, full curve, poor fit] | 
53 | CCOc1ccc(NC(=O)c2nnn(CC(=O)Nc3ccccc3OC)c2N)cc1 | inconclusive: 7.08 µM [inhibitor, single point] | 
54 | COc1ccccc1C(=O)Nn1c(C)nc2ccccc2c1=O | inconclusive: 0.501 µM [inhibitor, partial curve, poor fit] | 
55 | COc1ccc(C2NC(=O)NC(C)=C2C(=O)OC2CCC(C)CC2)cc1 (configuration not stated) | inactive | 
56 | COc1ccc(OC)c(NC(=O)c2cc(CN3CCCC3)on2)c1 | inconclusive: 8.91 µM [inhibitor, single point] | 
57 | CCCCc1nc(N2CCN(C(=O)c3ccco3)CC2)c(C#N)c2c1CCCC2 | inconclusive: 39.8 µM [inhibitor, single point] | 
58 | Cc1sc2nc(CSC(C)C(=O)Nc3cc(S(C)(=O)=O)ccc3Cl)[nH]c(=O)c2c1C (configuration not stated) | inactive | 
59 | c1ccc(Cc2cc[n+](Cc3ccccc3)cc2)cc1 | inconclusive: 6.31 µM [inhibitor, single point] | 
60 | CCOc1ccc(N(CC(=O)O)S(=O)(=O)c2ccc(OC)c(OC)c2)cc1 | inconclusive: 0.891 µM [inhibitor, single point] | 
61 | CNC(=S)N/N=C/c1ccc(OCC(=O)Nc2c(C)cc(C)cc2C)c(OC)c1 | inactive | 
62 | COc1ccc(NC(=O)[C@H](C)NC(=O)C2CCN(S(=O)(=O)c3ccc(OC)cc3)CC2)cc1 | inconclusive: 1.12 µM [inhibitor, full curve, poor fit] | 
63 | CN(Cc1ccco1)c1nc(-c2cccc(C#N)c2)nc2ccccc12 | inactive | 
64 | S=c1nc[nH]c2nc[nH]c12 | inconclusive: 39.8 µM [inhibitor, single point] | 
65 | CCCSc1nnc(NC(=O)CSc2sc3c(O)cc(=O)[nH]c3c2C#N)s1 | inconclusive: 3.98 µM [inhibitor, partial curve] | 
66 | O=C(O)c1cc(-c2cccs2)nn1-c1ccc(F)cc1 | inactive | 
67 | COc1ccc(/C(C)=N/NC(=O)c2ccc(CSc3cccc4cccnc34)cc2)cc1OC | inconclusive: 28.2 µM [inhibitor, partial curve] | 
